Where a chain is given by its changes, count along the chain named. No constants are given. Whether binding was seen depends on the method and setting. In cells and extracts the contact can be indirect. Some results given as binding are weak or reduced against the parent protein; the word gives no strength. For some of these results: Tags and fused reporters may be left off the sequences shown.
Key:
FLAG-TCOF1 = molecular target: T1, FLAG-TCOF1 (UniProt Q13428); experiment: co-IP; HEK293T cells co-transfected with FLAG-TCOF1 and HA-KRAS; IP with FLAG or HA antibodies, reciprocal
T1 sequence: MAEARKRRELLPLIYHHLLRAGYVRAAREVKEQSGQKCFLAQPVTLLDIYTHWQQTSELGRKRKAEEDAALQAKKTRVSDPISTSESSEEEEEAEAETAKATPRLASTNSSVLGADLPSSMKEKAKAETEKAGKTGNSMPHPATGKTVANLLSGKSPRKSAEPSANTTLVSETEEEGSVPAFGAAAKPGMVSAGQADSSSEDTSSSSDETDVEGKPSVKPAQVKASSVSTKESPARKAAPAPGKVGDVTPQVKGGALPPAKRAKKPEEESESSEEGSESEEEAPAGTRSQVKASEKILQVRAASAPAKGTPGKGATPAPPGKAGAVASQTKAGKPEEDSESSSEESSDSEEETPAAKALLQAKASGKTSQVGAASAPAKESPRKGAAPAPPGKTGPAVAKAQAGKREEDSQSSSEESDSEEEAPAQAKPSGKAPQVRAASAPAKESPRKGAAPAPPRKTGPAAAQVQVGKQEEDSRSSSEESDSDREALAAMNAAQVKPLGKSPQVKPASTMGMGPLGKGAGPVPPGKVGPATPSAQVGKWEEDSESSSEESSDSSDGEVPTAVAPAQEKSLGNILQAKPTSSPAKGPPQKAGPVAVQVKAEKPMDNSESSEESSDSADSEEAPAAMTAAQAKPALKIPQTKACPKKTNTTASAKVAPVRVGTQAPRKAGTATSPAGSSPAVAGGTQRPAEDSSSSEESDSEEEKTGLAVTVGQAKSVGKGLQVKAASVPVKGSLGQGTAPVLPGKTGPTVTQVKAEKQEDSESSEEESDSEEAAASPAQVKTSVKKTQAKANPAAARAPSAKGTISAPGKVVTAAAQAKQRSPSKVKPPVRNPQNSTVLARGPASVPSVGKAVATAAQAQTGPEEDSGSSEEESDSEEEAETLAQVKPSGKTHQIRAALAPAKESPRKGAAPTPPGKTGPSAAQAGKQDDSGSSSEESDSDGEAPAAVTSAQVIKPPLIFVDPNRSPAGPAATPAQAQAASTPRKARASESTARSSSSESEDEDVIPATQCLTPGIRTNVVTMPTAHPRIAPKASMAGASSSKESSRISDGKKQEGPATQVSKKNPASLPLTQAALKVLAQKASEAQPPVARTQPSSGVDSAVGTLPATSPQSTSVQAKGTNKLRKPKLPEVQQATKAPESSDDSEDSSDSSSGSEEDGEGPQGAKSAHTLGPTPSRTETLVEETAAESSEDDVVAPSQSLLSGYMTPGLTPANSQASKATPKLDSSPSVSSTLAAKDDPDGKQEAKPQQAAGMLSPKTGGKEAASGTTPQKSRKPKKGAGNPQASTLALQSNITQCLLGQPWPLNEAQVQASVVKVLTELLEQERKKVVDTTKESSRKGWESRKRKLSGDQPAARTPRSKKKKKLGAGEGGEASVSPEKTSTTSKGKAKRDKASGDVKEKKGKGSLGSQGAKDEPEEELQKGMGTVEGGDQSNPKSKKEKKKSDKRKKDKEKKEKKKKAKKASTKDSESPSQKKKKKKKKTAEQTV

[1] = molecular target: Neuronal nitric oxide synthase (nNOS) (UniProt P29475); experiment: co-IP; lysate of Huh6 cells overexpressing nNOS; IP with nNOS antibodies, blot with KRAS and TCOF1 antibodies; IgG as negative control
TCOF1-C644S = molecular target: T2, TCOF1-C644S (UniProt Q13428); experiment: co-IP; nNOS-overexpressing Huh6 cells after TCOF1 knockout, transfected with TCOF1-WT or TCOF1-C644S; which protein was precipitated is not told
T2 sequence: T1 sequence with C644S

[2] = molecular target: T3, treacle ribosome biogenesis factor 1 (TCOF1) (human (endogenous in Huh6)) (UniProt Q13428); experiment: co-IP; endogenous proteins in Huh6 lysate, with or without nNOS overexpression; IP with KRAS or TCOF1 antibodies, blot with the reciprocal antibodies; IgG as negative control
T3 sequence: T1 sequence

Substance | binding (FLAG-TCOF1) | binding [1] | binding (TCOF1-C644S) | binding [2]
HA-KRAS (from UniProt P01116 1-189) | binds | – | – | –
KRAS (from UniProt P01116 1-189) | – | no binding | binds | binds

Source: PMC12552980
